In publication PMC10890932:

Biological target: T1, TKT full-length (plasmid co-transfected with PARP1 truncation mutants) (human) (UniProt P29401)
T1 sequence: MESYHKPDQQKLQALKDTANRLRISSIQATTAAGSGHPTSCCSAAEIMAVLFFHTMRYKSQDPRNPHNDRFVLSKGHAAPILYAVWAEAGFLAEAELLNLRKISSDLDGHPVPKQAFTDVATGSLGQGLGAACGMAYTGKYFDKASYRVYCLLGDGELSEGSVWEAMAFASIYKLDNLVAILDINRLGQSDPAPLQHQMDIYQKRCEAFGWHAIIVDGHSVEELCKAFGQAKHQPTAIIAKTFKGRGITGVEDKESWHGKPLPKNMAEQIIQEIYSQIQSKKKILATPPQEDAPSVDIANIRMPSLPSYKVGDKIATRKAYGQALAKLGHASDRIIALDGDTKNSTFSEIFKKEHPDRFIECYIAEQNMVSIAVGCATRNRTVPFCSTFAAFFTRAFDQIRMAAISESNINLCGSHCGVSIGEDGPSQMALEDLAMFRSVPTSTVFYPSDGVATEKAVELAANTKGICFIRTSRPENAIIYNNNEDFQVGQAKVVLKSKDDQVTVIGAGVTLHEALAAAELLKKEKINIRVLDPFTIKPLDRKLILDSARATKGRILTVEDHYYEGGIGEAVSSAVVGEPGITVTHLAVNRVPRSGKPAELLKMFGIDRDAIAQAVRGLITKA
Experiment: co-IP; Hep3B cells transfected with TKT or PARP1 truncation mutants together with PARP1 or TKT full-length plasmid

binding: binds
Substance: ZnF domain of PARP1 (truncation mutant) (domain or fragment)

Results are given in words; binding and its absence hold for the method and conditions named. Binding seen in cells or lysates may run through a third protein. Binding can be weak; no strength is given.
